Results as given in the supplement of paper PMC6411743.
± gives the standard deviation of the averaged measurements. The list shows a part of the results, in another mix than the full data.

Chains of the proteins cited; added tags and fusions are not shown. Lines headed by an entry give the natural chain unless they say otherwise; changes in a name come on top.
UniProt Q9NRL3: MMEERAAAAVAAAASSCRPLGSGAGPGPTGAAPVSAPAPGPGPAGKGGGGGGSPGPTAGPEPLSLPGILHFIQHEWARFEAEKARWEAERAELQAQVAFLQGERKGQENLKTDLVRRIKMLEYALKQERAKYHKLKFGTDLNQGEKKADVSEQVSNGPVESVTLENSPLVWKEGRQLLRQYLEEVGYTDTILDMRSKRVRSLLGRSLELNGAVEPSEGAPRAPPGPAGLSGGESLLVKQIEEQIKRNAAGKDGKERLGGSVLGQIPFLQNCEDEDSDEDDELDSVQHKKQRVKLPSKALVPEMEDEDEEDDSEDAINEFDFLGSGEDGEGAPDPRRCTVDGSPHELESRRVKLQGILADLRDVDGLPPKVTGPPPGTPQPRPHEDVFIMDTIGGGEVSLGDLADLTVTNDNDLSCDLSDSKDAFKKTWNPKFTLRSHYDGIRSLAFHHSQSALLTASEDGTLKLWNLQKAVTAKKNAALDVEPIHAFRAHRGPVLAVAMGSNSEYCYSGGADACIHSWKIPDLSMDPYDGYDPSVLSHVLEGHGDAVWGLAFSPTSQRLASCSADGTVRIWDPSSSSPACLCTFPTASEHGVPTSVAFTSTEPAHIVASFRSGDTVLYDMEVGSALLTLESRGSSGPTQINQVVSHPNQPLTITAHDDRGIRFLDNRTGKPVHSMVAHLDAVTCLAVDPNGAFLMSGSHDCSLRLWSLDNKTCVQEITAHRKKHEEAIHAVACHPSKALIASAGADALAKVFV
UniProt Q9P1W8, whole entry: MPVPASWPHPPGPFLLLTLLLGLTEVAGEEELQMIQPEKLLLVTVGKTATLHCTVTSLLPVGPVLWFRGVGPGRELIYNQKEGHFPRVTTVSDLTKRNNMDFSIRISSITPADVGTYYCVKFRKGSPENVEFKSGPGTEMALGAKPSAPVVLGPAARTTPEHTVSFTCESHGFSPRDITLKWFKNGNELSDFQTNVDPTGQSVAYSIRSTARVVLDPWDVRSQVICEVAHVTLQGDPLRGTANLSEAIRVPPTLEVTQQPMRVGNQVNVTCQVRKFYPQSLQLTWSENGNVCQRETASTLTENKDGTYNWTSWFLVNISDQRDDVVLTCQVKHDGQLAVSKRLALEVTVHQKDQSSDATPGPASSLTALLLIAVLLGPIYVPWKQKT
UniProt Q9NX47: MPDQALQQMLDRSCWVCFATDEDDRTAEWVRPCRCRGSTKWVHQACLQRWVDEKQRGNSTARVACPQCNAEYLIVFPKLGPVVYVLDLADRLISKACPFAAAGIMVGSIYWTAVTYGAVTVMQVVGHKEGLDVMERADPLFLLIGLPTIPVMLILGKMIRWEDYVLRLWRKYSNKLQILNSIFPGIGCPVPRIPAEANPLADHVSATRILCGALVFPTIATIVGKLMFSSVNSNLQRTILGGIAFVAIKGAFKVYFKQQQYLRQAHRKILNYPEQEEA
UniProt Q9NZJ9: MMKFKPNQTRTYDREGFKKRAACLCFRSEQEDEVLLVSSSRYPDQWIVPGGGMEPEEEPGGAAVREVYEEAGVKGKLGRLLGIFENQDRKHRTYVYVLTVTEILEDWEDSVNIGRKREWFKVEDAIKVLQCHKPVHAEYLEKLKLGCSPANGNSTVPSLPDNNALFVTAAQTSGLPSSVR
UniProt Q9NQ11: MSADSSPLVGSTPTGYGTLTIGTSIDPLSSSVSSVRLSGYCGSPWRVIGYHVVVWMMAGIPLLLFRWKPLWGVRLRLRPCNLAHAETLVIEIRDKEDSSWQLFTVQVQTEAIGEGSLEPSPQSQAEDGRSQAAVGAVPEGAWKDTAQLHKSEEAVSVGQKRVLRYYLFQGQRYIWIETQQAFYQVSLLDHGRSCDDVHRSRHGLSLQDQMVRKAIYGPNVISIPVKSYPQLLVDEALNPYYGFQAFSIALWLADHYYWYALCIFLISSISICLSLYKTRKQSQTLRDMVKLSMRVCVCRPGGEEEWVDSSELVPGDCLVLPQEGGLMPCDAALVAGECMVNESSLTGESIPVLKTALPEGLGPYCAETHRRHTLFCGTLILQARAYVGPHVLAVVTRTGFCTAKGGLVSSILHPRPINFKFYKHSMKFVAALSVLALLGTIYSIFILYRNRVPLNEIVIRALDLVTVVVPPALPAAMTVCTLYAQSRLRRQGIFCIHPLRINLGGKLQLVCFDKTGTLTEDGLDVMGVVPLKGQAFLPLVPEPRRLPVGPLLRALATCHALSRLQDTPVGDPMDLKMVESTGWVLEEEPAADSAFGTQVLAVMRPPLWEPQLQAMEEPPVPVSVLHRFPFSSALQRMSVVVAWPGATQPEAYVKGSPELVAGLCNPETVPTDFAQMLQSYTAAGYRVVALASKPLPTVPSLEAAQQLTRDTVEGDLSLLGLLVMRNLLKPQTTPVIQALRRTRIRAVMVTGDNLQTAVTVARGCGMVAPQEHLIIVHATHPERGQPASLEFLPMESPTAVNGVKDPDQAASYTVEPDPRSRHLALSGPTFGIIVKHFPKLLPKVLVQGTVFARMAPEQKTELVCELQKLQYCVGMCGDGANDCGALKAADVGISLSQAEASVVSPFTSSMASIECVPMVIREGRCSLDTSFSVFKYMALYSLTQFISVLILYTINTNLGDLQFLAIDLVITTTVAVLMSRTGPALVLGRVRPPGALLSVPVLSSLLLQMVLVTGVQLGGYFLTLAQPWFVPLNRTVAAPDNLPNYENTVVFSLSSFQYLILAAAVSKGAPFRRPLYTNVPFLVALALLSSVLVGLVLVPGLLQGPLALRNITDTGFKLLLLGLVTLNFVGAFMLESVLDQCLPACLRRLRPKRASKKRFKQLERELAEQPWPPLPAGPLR
UniProt Q9NZD8: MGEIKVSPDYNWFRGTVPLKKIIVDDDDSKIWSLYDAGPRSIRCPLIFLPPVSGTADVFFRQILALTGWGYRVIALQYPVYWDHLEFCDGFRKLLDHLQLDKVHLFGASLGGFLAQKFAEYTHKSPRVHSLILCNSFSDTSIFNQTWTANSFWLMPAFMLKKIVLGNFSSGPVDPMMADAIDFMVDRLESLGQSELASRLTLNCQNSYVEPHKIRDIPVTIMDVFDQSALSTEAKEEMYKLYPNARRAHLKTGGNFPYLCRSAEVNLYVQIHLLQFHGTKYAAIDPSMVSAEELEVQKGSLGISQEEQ
UniProt Q9NXE8: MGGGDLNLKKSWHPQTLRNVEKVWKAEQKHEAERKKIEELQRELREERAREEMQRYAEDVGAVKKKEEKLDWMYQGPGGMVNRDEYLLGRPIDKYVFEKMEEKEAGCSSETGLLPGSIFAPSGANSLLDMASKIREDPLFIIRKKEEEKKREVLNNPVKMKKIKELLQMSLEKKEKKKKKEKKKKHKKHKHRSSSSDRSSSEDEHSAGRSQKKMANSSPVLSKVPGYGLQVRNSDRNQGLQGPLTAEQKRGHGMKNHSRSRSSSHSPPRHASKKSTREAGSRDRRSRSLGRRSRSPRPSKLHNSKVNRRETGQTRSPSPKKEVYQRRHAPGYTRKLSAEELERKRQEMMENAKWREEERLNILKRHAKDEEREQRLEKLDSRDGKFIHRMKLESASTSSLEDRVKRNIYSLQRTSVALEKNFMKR
UniProt Q9NWU1, whole entry: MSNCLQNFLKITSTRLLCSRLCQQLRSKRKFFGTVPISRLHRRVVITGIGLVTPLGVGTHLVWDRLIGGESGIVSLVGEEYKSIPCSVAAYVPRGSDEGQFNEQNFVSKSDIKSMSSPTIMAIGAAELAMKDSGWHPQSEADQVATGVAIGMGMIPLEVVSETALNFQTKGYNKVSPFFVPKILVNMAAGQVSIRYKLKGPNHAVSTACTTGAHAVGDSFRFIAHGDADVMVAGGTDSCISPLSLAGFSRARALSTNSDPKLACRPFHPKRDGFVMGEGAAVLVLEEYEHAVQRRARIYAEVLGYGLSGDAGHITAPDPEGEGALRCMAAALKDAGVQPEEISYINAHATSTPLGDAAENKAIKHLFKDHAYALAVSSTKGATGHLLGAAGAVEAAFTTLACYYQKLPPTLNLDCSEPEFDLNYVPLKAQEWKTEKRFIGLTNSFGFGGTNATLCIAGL
UniProt Q9NVG8: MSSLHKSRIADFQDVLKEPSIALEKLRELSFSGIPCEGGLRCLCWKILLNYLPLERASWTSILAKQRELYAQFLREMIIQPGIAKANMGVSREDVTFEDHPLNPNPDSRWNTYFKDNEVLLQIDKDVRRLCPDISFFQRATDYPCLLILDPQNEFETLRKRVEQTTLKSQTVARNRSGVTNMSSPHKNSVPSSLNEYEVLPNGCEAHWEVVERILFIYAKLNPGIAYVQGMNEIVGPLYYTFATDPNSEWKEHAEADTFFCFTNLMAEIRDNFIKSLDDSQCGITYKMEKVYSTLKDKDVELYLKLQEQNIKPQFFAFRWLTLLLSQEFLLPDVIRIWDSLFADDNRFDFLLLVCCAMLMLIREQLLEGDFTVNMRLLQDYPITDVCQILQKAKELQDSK
UniProt Q9NWX6: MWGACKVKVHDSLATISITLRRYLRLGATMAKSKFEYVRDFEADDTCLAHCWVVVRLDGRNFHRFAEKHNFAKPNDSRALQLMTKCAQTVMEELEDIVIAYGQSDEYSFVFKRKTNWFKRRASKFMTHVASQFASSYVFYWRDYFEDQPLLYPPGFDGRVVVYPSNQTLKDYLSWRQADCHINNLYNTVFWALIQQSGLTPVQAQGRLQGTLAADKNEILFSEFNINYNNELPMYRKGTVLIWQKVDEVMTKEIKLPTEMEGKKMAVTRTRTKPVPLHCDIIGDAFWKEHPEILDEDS
UniProt Q9NWK9: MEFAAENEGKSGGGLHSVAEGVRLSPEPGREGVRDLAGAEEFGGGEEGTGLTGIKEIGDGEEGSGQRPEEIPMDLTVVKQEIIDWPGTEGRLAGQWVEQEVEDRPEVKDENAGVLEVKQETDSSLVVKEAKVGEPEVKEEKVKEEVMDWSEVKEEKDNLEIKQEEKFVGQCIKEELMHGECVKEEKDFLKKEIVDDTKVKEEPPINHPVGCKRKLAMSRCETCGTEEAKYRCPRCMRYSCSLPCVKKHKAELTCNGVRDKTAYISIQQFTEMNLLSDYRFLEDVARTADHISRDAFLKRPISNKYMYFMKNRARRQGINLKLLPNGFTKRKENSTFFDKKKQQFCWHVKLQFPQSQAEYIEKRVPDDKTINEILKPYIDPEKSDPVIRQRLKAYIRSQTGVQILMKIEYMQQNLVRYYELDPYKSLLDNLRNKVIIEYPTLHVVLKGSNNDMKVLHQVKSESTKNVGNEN
UniProt Q9NT62, whole entry: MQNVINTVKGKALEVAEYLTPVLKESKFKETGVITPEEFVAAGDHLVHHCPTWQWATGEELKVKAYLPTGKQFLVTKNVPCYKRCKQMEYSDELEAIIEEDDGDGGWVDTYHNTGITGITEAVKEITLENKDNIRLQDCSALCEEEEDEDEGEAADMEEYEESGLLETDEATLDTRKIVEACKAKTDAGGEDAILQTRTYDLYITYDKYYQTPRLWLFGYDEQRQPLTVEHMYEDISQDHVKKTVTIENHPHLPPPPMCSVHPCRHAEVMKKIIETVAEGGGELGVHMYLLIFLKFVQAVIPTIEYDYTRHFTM
UniProt Q9NVH0: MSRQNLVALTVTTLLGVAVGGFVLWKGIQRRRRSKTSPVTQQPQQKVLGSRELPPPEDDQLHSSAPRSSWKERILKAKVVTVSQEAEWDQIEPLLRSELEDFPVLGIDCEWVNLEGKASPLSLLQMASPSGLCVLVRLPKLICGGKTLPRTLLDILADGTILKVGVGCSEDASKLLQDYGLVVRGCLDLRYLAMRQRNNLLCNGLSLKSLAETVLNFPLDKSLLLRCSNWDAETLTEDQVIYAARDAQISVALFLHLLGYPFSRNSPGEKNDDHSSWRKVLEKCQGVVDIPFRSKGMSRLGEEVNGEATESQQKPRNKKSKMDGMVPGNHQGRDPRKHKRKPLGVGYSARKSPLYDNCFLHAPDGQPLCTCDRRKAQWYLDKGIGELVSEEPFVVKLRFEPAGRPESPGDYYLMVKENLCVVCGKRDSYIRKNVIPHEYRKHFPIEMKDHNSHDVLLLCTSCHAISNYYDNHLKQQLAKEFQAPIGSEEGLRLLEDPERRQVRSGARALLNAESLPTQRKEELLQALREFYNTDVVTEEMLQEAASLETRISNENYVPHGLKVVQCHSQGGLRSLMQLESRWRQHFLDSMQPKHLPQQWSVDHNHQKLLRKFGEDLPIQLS
UniProt Q9P0J7: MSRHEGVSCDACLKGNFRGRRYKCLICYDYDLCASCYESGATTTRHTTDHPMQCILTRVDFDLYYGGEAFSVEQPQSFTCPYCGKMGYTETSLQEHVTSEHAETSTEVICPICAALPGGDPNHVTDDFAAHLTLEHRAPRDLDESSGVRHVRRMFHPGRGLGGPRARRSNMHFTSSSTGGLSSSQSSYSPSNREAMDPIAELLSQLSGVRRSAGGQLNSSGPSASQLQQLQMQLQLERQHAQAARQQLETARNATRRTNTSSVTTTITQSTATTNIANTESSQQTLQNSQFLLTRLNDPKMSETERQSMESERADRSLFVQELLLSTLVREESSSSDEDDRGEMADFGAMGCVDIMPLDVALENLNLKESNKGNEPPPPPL

Compound: Nc1ncnc2c1ncn2[C@@H]1O[C@H](COP(=O)(O)OP(=O)(O)OP(=O)(O)O)[C@@H](O)[C@H]1O [adenosine triphosphate]
Assay: NP40-soluble protein abundance relative to vehicle (solubility fold change) (ratio); higher = more soluble protein in presence of ATP
Summary of the method: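 Jurkat crude lysate prepared with a Dounce homogeniser was treated at eight concentrations spanning 0.1 to 10 mM, 10 min at room temperature then 3 min at 37 °C. Solubilisation with 0.8% NP40 and benzonase and ultracentrifugation preceded TMT labelling of the supernatant for LC-MS/MS. Fold change against the detergent-processed vehicle was determined per replicate from vsn-normalised intensities, across three independent experiments.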

Target UniProt Q9NRL3 and related entries has an NP40-soluble protein abundance (concentration: 1mM) of 1 ± 0.033, an NP40-soluble protein abundance (concentration: 2mM) of 0.992 ± 0.026 and an NP40-soluble protein abundance (concentration: 4mM) of 0.96 ± 0.057. It also gave an NP40-soluble protein abundance (concentration: 6mM) of 1.01 ± 0.086, an NP40-soluble protein abundance (concentration: 8mM) of 0.985 ± 0.019 and an NP40-soluble protein abundance (concentration: 10mM) of 0.998 ± 0.073.
With UniProt Q9NZ08-2 the NP40-soluble protein abundance (concentration: 1mM) was 0.977 ± 0.047, the NP40-soluble protein abundance (concentration: 2mM) was 0.998 ± 0.057 and the NP40-soluble protein abundance (concentration: 4mM) was 0.962 ± 0.025. The NP40-soluble protein abundance (concentration: 6mM) was 0.936 ± 0.046, the NP40-soluble protein abundance (concentration: 8mM) was 0.938 ± 0.029 and the NP40-soluble protein abundance (concentration: 10mM) was 0.963 ± 0.025.
UniProt Q9P1W8 and related entries gave an NP40-soluble protein abundance (concentration: 1mM) of 0.976 ± 0.022, an NP40-soluble protein abundance (concentration: 2mM) of 1.03 ± 0.09 and an NP40-soluble protein abundance (concentration: 4mM) of 0.978 ± 0.026. The NP40-soluble protein abundance (concentration: 6mM) was 0.9714 ± 0.0095, the NP40-soluble protein abundance (concentration: 8mM) was 0.935 ± 0.027 and the NP40-soluble protein abundance (concentration: 10mM) was 0.936 ± 0.016.
Work on UniProt Q9NX47 yielded an NP40-soluble protein abundance (concentration: 1mM) of 0.997 ± 0.092, an NP40-soluble protein abundance (concentration: 2mM) of 1.05 ± 0.042 and an NP40-soluble protein abundance (concentration: 4mM) of 1.04 ± 0.069. The NP40-soluble protein abundance (concentration: 6mM) was 0.972 ± 0.13, the NP40-soluble protein abundance (concentration: 8mM) was 1.05 ± 0.13 and the NP40-soluble protein abundance (concentration: 10mM) was 0.994 ± 0.047.
NUDT4 (UniProt Q9NZJ9) was tested, and the NP40-soluble protein abundance (concentration: 1mM) was 0.975 ± 0.027, the NP40-soluble protein abundance (concentration: 2mM) was 0.94 ± 0.052 and the NP40-soluble protein abundance (concentration: 4mM) was 0.994 ± 0.049. For the same target, the NP40-soluble protein abundance (concentration: 6mM) was 0.88 ± 0.04, the NP40-soluble protein abundance (concentration: 8mM) was 0.964 ± 0.031 and the NP40-soluble protein abundance (concentration: 10mM) was 0.919 ± 0.11.
In the case of UniProt Q9NQ11 and related entries, the NP40-soluble protein abundance (concentration: 1mM) is reported as 0.92 ± 0.1, the NP40-soluble protein abundance (concentration: 2mM) is reported as 0.942 ± 0.047 and the NP40-soluble protein abundance (concentration: 4mM) is reported as 0.957 ± 0.13. For the same target, the NP40-soluble protein abundance (concentration: 6mM) was 0.96 ± 0.15, the NP40-soluble protein abundance (concentration: 8mM) was 0.895 ± 0.11 and the NP40-soluble protein abundance (concentration: 10mM) was 0.942 ± 0.14.
UniProt Q9NZD8 and related entries showed an NP40-soluble protein abundance (concentration: 1mM) of 1.05 ± 0.06, an NP40-soluble protein abundance (concentration: 2mM) of 1.03 ± 0.06 and an NP40-soluble protein abundance (concentration: 4mM) of 0.981 ± 0.024. For the same target, the NP40-soluble protein abundance (concentration: 6mM) was 0.945 ± 0.075, the NP40-soluble protein abundance (concentration: 8mM) was 0.964 ± 0.035 and the NP40-soluble protein abundance (concentration: 10mM) was 0.975 ± 0.036.
Work on UniProt Q9NXE8 yielded an NP40-soluble protein abundance (concentration: 1mM) of 1.11 ± 0.08, an NP40-soluble protein abundance (concentration: 2mM) of 1.11 ± 0.043 and an NP40-soluble protein abundance (concentration: 4mM) of 1.09 ± 0.1. The NP40-soluble protein abundance (concentration: 6mM) was 1.11 ± 0.052, the NP40-soluble protein abundance (concentration: 8mM) was 1.13 ± 0.089 and the NP40-soluble protein abundance (concentration: 10mM) was 1.21 ± 0.021.
With OXSM (UniProt Q9NWU1) the NP40-soluble protein abundance (concentration: 1mM) was 1.06 ± 0.091, the NP40-soluble protein abundance (concentration: 2mM) was 1.05 ± 0.058 and the NP40-soluble protein abundance (concentration: 4mM) was 1.05 ± 0.068. The NP40-soluble protein abundance (concentration: 6mM) was 1.04 ± 0.092, the NP40-soluble protein abundance (concentration: 8mM) was 1.05 ± 0.047 and the NP40-soluble protein abundance (concentration: 10mM) was 1.03 ± 0.016.
TBC1D13 (UniProt Q9NVG8) was tested, and the NP40-soluble protein abundance (concentration: 1mM) was 1.02 ± 0.071, the NP40-soluble protein abundance (concentration: 2mM) was 1.01 ± 0.042 and the NP40-soluble protein abundance (concentration: 4mM) was 1.01 ± 0.038. The NP40-soluble protein abundance (concentration: 6mM) was 0.985 ± 0.077, the NP40-soluble protein abundance (concentration: 8mM) was 1.02 ± 0.058 and the NP40-soluble protein abundance (concentration: 10mM) was 0.985 ± 0.026.
THG1L (UniProt Q9NWX6) showed an NP40-soluble protein abundance (concentration: 1mM) of 1.09 ± 0.17, an NP40-soluble protein abundance (concentration: 2mM) of 1.07 ± 0.086 and an NP40-soluble protein abundance (concentration: 4mM) of 1.09 ± 0.072. For the same target, the NP40-soluble protein abundance (concentration: 6mM) was 1 ± 0.055, the NP40-soluble protein abundance (concentration: 8mM) was 1.08 ± 0.13 and the NP40-soluble protein abundance (concentration: 10mM) was 0.996 ± 0.18.
For ZNHIT6 (UniProt Q9NWK9), the NP40-soluble protein abundance (concentration: 1mM) was 1.03 ± 0.066, the NP40-soluble protein abundance (concentration: 2mM) was 1.01 ± 0.09 and the NP40-soluble protein abundance (concentration: 4mM) was 1 ± 0.038. For the same target, the NP40-soluble protein abundance (concentration: 6mM) was 1.02 ± 0.13, the NP40-soluble protein abundance (concentration: 8mM) was 1.02 ± 0.12 and the NP40-soluble protein abundance (concentration: 10mM) was 1.07 ± 0.11.
Target UniProt Q9NT62 and related entries has an NP40-soluble protein abundance (concentration: 1mM) of 0.964 ± 0.032, an NP40-soluble protein abundance (concentration: 2mM) of 0.973 ± 0.023 and an NP40-soluble protein abundance (concentration: 4mM) of 0.957 ± 0.018. The NP40-soluble protein abundance (concentration: 6mM) was 0.978 ± 0.036, the NP40-soluble protein abundance (concentration: 8mM) was 0.944 ± 0.055 and the NP40-soluble protein abundance (concentration: 10mM) was 0.918 ± 0.044.
UniProt Q9NVH0 and related entries gave an NP40-soluble protein abundance (concentration: 1mM) of 1.01 ± 0.063, an NP40-soluble protein abundance (concentration: 2mM) of 1 ± 0.024 and an NP40-soluble protein abundance (concentration: 4mM) of 1.02 ± 0.059. The NP40-soluble protein abundance (concentration: 6mM) was 1.03 ± 0.03, the NP40-soluble protein abundance (concentration: 8mM) was 1 ± 0.025 and the NP40-soluble protein abundance (concentration: 10mM) was 1.1 ± 0.067.
In the case of KCMF1 (UniProt Q9P0J7), the NP40-soluble protein abundance (concentration: 1mM) is reported as 0.96 ± 0.046, the NP40-soluble protein abundance (concentration: 2mM) is reported as 0.931 ± 0.081 and the NP40-soluble protein abundance (concentration: 4mM) is reported as 0.898 ± 0.054. For the same target, the NP40-soluble protein abundance (concentration: 6mM) was 0.948 ± 0.19, the NP40-soluble protein abundance (concentration: 8mM) was 0.949 ± 0.12 and the NP40-soluble protein abundance (concentration: 10mM) was 0.907 ± 0.06.
